Results are given in words; binding and its absence hold for the method and conditions named. Binding seen in cells or lysates may run through a third protein. Here binding means that the protein was enriched with, or labelled near, the bait; the list need not be complete.
How the values were obtained:
menin E366D-GFP (human) [1] = molecular target: menin E366D-GFP (human) (UniProt O00255); test: affinity purification with mass spectrometry; GFP-Trap agarose beads against control agarose beads; 1 mg nuclear extract of HeLa cells induced with doxycycline for 24 h; binding buffer 20 mM Hepes-KOH pH 7.9, 300 mM NaCl, 20% glycerol, 0.1% NP-40; 4 °C, 1 h; triplicates; label-free LFQ and iBAQ, FDR 0.01, s0 2
WT menin-GFP (human) [2] = molecular target: WT menin-GFP (human) (UniProt O00255); test: as above
menin E408Q-GFP (human) [3] = molecular target: menin E408Q-GFP (human) (UniProt O00255); test: as above
menin Q141R-GFP (human) [4] = molecular target: menin Q141R-GFP (human) (UniProt O00255); test: as above
menin R322H-GFP (human) [5] = test: as above
menin E359K-GFP (human) [6] = molecular target: menin E359K-GFP (human) (UniProt O00255); test: as above
menin E366D-GFP (human) [7] = molecular target: menin E366D-GFP (human) (UniProt O00255); test: affinity purification with mass spectrometry; GFP-Trap agarose beads against control agarose beads; 3 mg cytoplasmic extract of HeLa cells induced with doxycycline for 24 h; binding buffer 20 mM Hepes-KOH pH 7.9, 300 mM NaCl, 20% glycerol, 0.1% NP-40; 4 °C, 1 h; triplicates; label-free LFQ and iBAQ, FDR 0.01, s0 2
WT menin-GFP (human) [8] = molecular target: WT menin-GFP (human) (UniProt O00255); test: as above
menin L168P-GFP (human) = menin L168P-GFP (human) (UniProt O00255); test: as above
menin L264P-GFP (human) = menin L264P-GFP (human) (UniProt O00255); test: as above
menin E255K-GFP (human) = menin E255K-GFP (human) (UniProt O00255); test: as above
menin E408Q-GFP (human) [9] = molecular target: menin E408Q-GFP (human) (UniProt O00255); test: as above
menin R322H-GFP (human) [10] = test: as above
menin R52G-GFP (human) = menin R52G-GFP (human) (UniProt O00255); test: as above
menin Q141R-GFP (human) [11] = molecular target: menin Q141R-GFP (human) (UniProt O00255); test: as above
menin E359K-GFP (human) [12] = molecular target: menin E359K-GFP (human) (UniProt O00255); test: as above

Chains of the proteins cited; added tags and fusions are not shown.
UniProt Q9UMN6: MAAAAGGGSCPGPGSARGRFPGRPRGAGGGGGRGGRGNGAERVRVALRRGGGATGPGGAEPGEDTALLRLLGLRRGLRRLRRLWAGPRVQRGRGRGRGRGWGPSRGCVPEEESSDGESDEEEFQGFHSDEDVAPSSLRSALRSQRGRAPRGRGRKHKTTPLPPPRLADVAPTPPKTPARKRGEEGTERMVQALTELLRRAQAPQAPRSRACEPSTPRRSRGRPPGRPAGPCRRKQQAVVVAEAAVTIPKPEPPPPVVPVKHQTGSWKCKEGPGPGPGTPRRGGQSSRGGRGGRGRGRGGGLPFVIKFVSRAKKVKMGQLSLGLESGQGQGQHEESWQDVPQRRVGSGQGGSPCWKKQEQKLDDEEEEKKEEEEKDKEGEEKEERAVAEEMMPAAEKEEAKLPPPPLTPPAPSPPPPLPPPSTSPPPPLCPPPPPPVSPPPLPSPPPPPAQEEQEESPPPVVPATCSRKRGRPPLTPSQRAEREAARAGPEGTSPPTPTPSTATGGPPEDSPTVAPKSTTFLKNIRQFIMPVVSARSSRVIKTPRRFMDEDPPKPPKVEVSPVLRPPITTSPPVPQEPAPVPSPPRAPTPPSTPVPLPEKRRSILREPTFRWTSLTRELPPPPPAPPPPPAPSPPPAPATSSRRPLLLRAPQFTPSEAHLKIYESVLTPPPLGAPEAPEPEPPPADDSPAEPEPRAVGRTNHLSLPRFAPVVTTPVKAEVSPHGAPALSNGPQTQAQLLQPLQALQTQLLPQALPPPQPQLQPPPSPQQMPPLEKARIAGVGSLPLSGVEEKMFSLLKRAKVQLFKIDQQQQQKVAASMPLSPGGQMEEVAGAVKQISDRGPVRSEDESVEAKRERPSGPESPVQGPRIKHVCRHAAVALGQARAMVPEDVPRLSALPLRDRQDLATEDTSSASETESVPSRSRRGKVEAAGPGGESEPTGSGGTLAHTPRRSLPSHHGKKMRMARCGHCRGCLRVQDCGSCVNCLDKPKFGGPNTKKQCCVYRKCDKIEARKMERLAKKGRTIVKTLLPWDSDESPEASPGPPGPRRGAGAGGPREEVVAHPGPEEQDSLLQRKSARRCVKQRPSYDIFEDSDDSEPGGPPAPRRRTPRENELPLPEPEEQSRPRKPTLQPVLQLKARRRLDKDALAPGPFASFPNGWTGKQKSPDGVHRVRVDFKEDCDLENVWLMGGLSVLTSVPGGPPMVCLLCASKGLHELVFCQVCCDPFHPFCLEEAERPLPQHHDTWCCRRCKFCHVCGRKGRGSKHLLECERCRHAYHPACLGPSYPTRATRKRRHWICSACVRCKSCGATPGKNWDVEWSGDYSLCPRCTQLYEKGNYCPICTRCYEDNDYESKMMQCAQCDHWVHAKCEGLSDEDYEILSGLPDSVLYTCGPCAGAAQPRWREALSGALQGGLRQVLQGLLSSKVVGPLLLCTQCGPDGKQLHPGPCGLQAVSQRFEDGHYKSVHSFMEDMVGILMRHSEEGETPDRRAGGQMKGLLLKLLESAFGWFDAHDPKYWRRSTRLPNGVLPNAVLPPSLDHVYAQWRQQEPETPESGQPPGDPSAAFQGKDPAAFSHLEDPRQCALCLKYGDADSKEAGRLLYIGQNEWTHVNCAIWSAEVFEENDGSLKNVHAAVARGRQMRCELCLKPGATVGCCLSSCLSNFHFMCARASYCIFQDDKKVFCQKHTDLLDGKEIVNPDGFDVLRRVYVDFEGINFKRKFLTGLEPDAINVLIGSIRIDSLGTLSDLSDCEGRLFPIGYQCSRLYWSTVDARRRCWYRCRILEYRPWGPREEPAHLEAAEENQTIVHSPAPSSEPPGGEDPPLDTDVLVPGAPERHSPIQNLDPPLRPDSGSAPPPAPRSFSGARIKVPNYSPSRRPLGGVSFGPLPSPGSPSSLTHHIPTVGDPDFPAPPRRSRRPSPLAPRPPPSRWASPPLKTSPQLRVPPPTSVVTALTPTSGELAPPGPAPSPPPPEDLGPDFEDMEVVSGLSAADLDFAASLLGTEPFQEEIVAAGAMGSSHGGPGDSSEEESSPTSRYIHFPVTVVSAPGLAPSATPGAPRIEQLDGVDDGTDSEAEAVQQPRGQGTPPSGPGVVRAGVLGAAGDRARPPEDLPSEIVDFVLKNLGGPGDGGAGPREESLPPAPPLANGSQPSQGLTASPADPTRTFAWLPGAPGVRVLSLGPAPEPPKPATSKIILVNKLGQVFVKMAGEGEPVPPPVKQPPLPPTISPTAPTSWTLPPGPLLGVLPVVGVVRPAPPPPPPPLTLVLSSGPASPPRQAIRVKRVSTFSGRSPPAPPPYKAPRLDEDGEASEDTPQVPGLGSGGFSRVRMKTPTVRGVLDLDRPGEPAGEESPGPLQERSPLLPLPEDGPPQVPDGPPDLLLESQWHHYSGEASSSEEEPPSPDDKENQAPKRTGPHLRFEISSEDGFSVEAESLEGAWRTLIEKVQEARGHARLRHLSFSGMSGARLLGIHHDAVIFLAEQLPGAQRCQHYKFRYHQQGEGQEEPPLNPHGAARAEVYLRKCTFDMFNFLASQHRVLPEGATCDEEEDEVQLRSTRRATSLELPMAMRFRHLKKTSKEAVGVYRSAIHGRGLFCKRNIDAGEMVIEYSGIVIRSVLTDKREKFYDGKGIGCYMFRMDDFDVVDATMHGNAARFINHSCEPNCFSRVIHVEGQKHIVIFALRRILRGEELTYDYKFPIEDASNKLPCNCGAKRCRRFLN

Measured: binding

KMT2A (from UniProt Q03164 1-3969)
binds: menin E366D-GFP (human) [1] | WT menin-GFP (human) [2] | menin E408Q-GFP (human) [3] | menin Q141R-GFP (human) [4]

KMT2B (from UniProt Q9UMN6 1-2715)
binds: menin E366D-GFP (human) [1] | WT menin-GFP (human) [2] | menin E408Q-GFP (human) [3] | menin Q141R-GFP (human) [4]

B1: JunD (protein, UniProt P17535 1-347)
chain: METPFYGDEALSGLGGGASGSGGSFASPGRLFPGAPPTAAAGSMMKKDALTLSLSEQVAAALKPAAAPPPTPLRADGAPSAAPPDGLLASPDLGLLKLASPELERLIIQSNGLVTTTPTSSQFLYPKVAASEEQEFAEGFVKALEDLHKQNQLGAGAAAAAAAAAAGGPSGTATGSAPPGELAPAAAAPEAPVYANLSSYAGGAGGAGGAATVAFAAEPVPFPPPPPPGALGPPRLAALKDEPQTVPDVPSFGESPPLSPIDMDTQERIKAERKRLRNRIAASKCRKRKLERISRLEEKVKTLKSQNTELASTASLLREQVAQLKQKVLSHVNSGCQLLPQHQVPAY
binds: menin E366D-GFP (human) [1] | WT menin-GFP (human) [2] | menin E408Q-GFP (human) [3] | menin R322H-GFP (human) [5] | menin Q141R-GFP (human) [4] | menin E359K-GFP (human) [6]

B2: ATF7 (protein, UniProt P17544 1-483)
chain: MGDDRPFVCNAPGCGQRFTNEDHLAVHKHKHEMTLKFGPARTDSVIIADQTPTPTRFLKNCEEVGLFNELASSFEHEFKKAADEDEKKAAAGPLDMSLPSTPDIKIKEEEPVEVDSSPPDSPASSPCSPPLKEKEVTPKPVLISTPTPTIVRPGSLPLHLGYDPLHPTLPSPTSVITQAPPSNRQMGSPTGSLPLVMHLANGQTMPVLPGPPVQMPSVISLARPVSMVPNIPGIPGPPVNSSGSISPSGHPIPSEAKMRLKATLTHQVSSINGGCGMVVGTASTMVTARPEQSQILIQHPDAPSPAQPQVSPAQPTPSTGGRRRRTVDEDPDERRQRFLERNRAAASRCRQKRKLWVSSLEKKAEELTSQNIQLSNEVTLLRNEVAQLKQLLLAHKDCPVTALQKKTQGYLESPKESSEPTGSPAPVIQHSSATAPSNGLSVRSAAEAVATSVLTQMASQRTELSMPIQSHVIMTPQSQSAGR
binds: menin E366D-GFP (human) [1] | WT menin-GFP (human) [2] | menin E408Q-GFP (human) [3] | menin R322H-GFP (human) [5]

B3: BAG5 (protein, UniProt Q9UL15 1-447)
chain: MDMGNQHPSISRLQEIQKEVKSVEQQVIGFSGLSDDKNYKKLERILTKQLFEIDSVDTEGKGDIQQARKRAAQETERLLKELEQNANHPHRIEIQNIFEEAQSLVREKIVPFYNGGNCVTDEFEEGIQDIILRLTHVKTGGKISLRKARYHTLTKICAVQEIIEDCMKKQPSLPLSEDAHPSVAKINFVMCEVNKARGVLIALLMGVNNNETCRHLSCVLSGLIADLDALDVCGRTEIRNYRREVVEDINKLLKYLDLEEEADTTKAFDLRQNHSILKIEKVLKRMREIKNELLQAQNPSELYLSSKTELQGLIGQLDEVSLEKNPCIREARRRAVIEVQTLITYIDLKEALEKRKLFACEEHPSHKAVWNVLGNLSEIQGEVLSFDGNRTDKNYIRLEELLTKQLLALDAVDPQGEEKCKAARKQAVRLAQNILSYLDLKSDEWEY
not listed: menin E366D-GFP (human) [1] | WT menin-GFP (human) [2] | menin E408Q-GFP (human) [3] | menin Q141R-GFP (human) [4] | menin R322H-GFP (human) [5] | menin E359K-GFP (human) [6]
binds: all other assays above
